According to article PMC4227788:
For some assays here: Negatives hold for the conditions tested. For some assays here: The comparison behind a weaker result is the experiment's own reference, which may not be listed here. For some assays here: The exact form of at least one protein or probe is not confirmed. For some assays here: At least one verdict was read from the data and is not stated in words by the source.

Chains of the proteins cited; added tags and fusions are not shown. A line that says so, or that is headed by a name, gives the form on record, which may keep a tag or linker.
Tim-Tipin complex (mouse), one chain, as listed by the source, chain 1 of 2: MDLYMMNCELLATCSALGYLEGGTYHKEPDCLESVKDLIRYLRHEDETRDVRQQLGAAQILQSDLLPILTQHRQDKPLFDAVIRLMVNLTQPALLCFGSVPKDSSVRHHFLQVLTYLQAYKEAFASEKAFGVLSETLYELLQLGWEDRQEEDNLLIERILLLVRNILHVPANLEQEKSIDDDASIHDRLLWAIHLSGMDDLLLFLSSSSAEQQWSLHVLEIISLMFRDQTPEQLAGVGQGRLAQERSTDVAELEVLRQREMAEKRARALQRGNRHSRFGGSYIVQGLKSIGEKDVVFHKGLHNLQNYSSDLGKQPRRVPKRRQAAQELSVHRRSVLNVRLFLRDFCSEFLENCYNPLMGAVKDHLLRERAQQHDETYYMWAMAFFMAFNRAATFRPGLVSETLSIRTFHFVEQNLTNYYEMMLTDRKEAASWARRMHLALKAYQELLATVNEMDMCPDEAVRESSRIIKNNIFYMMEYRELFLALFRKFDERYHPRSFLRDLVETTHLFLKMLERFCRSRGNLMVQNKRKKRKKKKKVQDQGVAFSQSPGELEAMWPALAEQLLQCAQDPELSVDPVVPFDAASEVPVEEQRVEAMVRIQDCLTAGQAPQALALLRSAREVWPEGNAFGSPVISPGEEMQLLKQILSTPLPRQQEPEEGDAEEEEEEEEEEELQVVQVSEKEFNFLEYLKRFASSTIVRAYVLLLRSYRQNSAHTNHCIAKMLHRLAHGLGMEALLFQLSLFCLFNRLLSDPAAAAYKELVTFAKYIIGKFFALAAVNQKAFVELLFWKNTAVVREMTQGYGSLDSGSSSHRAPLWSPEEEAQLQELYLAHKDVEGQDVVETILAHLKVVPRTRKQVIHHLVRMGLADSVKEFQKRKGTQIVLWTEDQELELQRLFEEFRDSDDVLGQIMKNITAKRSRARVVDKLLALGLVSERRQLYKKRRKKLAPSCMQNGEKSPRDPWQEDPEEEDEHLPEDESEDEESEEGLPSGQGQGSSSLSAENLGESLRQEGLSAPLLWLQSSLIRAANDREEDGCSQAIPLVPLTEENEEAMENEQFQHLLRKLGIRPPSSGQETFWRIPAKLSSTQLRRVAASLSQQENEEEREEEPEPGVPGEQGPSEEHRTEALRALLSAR
Tim-Tipin complex (mouse), one chain, as listed by the source, chain 2 of 2: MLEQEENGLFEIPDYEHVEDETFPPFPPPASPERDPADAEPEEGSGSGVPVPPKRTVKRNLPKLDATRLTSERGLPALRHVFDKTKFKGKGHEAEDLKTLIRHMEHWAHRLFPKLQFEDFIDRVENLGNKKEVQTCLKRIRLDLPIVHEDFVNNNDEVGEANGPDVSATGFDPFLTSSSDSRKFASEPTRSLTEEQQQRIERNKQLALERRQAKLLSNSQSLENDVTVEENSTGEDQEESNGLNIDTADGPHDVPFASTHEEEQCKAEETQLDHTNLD

Assays:
[1] = tested on: Tim-Tipin complex + RPA70/32/14 (RPA70ABC/32D-WH/14); assay: SEC; conditions: 20 mM Hepes pH 7.5, 125 mM NaCl, 2 mM DTT, 0.01 mM zinc acetate (Buffer A), FA 15 min 30 C, 10 nM DNA, recombinant protein, protein details: His (Tim) and His-GST (Tipin), cleaved with 3C,His, single-stranded DNA
[2] = tested on: Tim-Tipin complex + RPA70/32/14 (RPA70ABC/32D-WH/14); assay: EMSA; conditions: 20 mM Hepes pH 7.5, 125 mM NaCl, 2 mM DTT, 0.01 mM zinc acetate (Buffer A), EMSA 15 min RT + 15 min 4 C, FA 15 min 30 C, 10 nM DNA, recombinant protein, protein details: His (Tim) and His-GST (Tipin), cleaved with 3C,His, label: 5'-FAM, single-stranded DNA
[3] = tested on: Tim-Tipin complex + RPA full length (RPA70FL/32FL/14); assay: SEC; conditions: full-length RPA, 260/280 = 1.05, similar to truncated RPA; 20 mM Hepes pH 7.5, 125 mM NaCl, 2 mM DTT, 0.01 mM zinc acetate (Buffer A); FA 15 min 30 C, 10 nM …; recombinant protein; protein details: His (Tim) and His-GST (Tipin), cleaved with 3C,His; single-stranded DNA
[4] = tested on: Tim-Tipin complex (mouse); assay: SEC; conditions: excess DNA, partial binding, 260/280 = 0.74 ± 0.01; 20 mM Hepes pH 7.5, 125 mM NaCl, 2 mM DTT, 0.01 mM zinc acetate (Buffer A); FA 15 min 30 C, 10 nM DNA; recombinant protein; protein details: His (Tim) and His-GST (Tipin), cleaved with 3C; single-stranded DNA
[5] = tested on: Tim-Tipin complex (mouse); assay: EMSA; conditions: 16 uM protein, 4-64 uM DNA, less pronounced than 60 nt; 20 mM Hepes pH 7.5, 125 mM NaCl, 2 mM DTT, 0.01 mM zinc acetate (Buffer A); EMSA 15 min RT + 15 min 4 C; FA 15 min 30 C, 10 nM DNA; recombinant protein; protein details: His (Tim) and His-GST (Tipin), cleaved with 3C; label: 5'-FAM; single-stranded DNA
[6] = substoichiometric DNA, complex dissociates to free Tim-Tipin and RPA-DNA

**Q.** Does “CAGACCGCCACCGACTGCTTAGATATTTAAGTTTTCTAATTTTTCATTGAAAGCATTAAG [60 nt ssDNA (SEC)]” bind [1, 6]?
**A.** Result: no binding

**Q.** Does “ACGCTGCCGAATTCTACCAGTGCCTTGCTAGGACATCTTTGCCCACCTGCAGGTTCACCC [60 nt FAM ssDNA]” bind ([2]; substoichiometric DNA, complex dissociates, up to 4 RPA on DNA)?
**A.** Result: no binding

**Q.** What does the source list for “CGGGATCCCAGCCAGCGATGTCTCAAGCTGC [31 nt ssDNA (SEC)]”?
**A.** binding result [1, 6]: no binding; binding result [3]: binds; binding result [4]: binds more weakly

**Q.** Does AGAAGAGCCAAAAC [14 nt ssDNA (SEC)] bind ([1]; complex dissociates to free Tim-Tipin and RPA-DNA at all ratios)?
**A.** Result: no binding

**Q.** Does GACGGCATCCCTAA [14 nt FAM ssDNA] bind ([2]; complex dissociates to free Tim-Tipin and RPA-DNA)?
**A.** Result: no binding

**Q.** Does “ACGCTGCCGAATTCTACCAGTGCCTTGCTA [30 nt FAM ssDNA]” bind [5]?
**A.** Result: binds more weakly
